Measurements reported in patent publication US20050069918A1.
No constants are given. Whether binding was seen depends on the method and setting. Binding seen in cells or lysates may run through a third protein. Some results given as binding are weak or reduced against the parent protein; the word gives no strength.

How the values were obtained:
[1] = target: GST-p27 fusion protein [GST: P08515]; assay: competition of the peptide (0-20 ug/ml) in the GST-p27 pull-down of 35S-JAB1 (figure legend)
[2] = target: GST-p27 fusion protein [GST: P08515]; assay: competition of the peptide (0-20 ug/ml) in the GST-p27 pull-down of 35S-JAB1

binding [1]: binds
binding [2]: binds
Binder: LAKATRDSCKTTIEAIHG [synthetic JAB1-peptide #1 corresponding to JAB1-p27 binding-domain (18 amino acid residues)]
